Among all 59,000 compounds or so, about 6,500 (11%) were called active. Inconclusive results, whose numbers are uncertain, are shown with a selection of clear calls. Rule as the data show it: active = max dye-equivalent concentration above about 10 nM; inconclusive = mostly about 1.1 nM to 9.6 nM; inactive = weaker than that.
Assay: qHTS Assay for Spectroscopic Profiling in A350 Spectral Region
Settings: Compound autofluorescence, 340/450 nm, Alexa 350 dye-equivalents; stronger effect = higher value

| Compound | max dye-equivalent concentration |
| --- | --- |
| CCOC(=O)c1ccc(N2C(=O)C(O)=C(C(C)=O)C2c2ccccn2)cc1 (centres undefined) | inconclusive: 7.5 nM |
| O=C(O)c1ccc(CNCc2ccccc2)cc1 | inactive |
| CN(C)c1ccc(C(=S)N2CCN(c3ccccc3)CC2)cc1 | inactive |
| OC(CNCC1COc2ccccc2O1)COCc1cccs1 (centres undefined) | inconclusive: 1.2 nM |
| Cc1cc(=O)n2nc(-c3ccccc3)sc2n1 | inactive |
| COC(=O)Nc1ccc2c(c1)N(C(=O)CCN1CCOCC1)c1ccccc1S2 | active: 57 nM |
| CC(C)N(CCNC(=O)C1CCN(S(=O)(=O)N2CCOCC2)CC1)Cc1ccccc1 | inconclusive: 6.2 nM |
| COC(=O)c1cc(OC)c(OC)cc1NC(=O)C1CCC(=O)N1S(=O)(=O)c1ccc(C)cc1 (centres undefined) | inactive |
| CCc1nc(NCc2ccccn2)c2oc3ccccc3c2n1 | inconclusive: 1.2 nM |
| Cc1nc2ccc(N)cc2c(=O)n1Cc1ccc(Cl)cc1 | active: 1200 nM |
| CCCCC(=O)Nc1ccc2oc(-c3cccnc3)nc2c1 | active: 24 nM |
| CC(Oc1ccc2c(-c3ccccc3)cc(=O)oc2c1)C(=O)O (centres undefined) | active: 23 nM |
| O=C(SCc1cccc2ccccc12)c1ccc(Cl)cc1 | inactive |
| O=C(NC1(C(F)(F)F)C(=O)Nc2c1c(=O)[nH]c(=O)n2Cc1ccco1)C1CC1 (centres undefined) | inactive |
| CNc1cc(-c2ccccc2C(F)(F)F)ncn1 | inactive |
| Cc1ccc2nc(-c3ccc(SCC(=O)O)nc3)[nH]c2c1 | inconclusive: 5.6 nM |
| Cn1c(=S)c2[nH]c(SCCN3C(=O)c4ccccc4C3=O)nc2n(C)c1=O | inactive |
| O=C(NC1CCCCC1)C1CCN(c2nccs2)CC1 | inactive |
| O=C(O)C1CCCN1S(=O)(=O)c1ccc2ccccc2c1 (centres undefined) | inactive |
| Cc1ccc2c(COC(=O)c3cnc(C)cn3)cc(=O)oc2c1 | inconclusive: 1.3 nM |
| c1ccc(-c2nc3nc4ccccc4nc3n2Cc2ccco2)cc1 | active: 170 nM |
| CCC(C)n1c(-c2cccs2)nc2nc3ccccc3nc21 (centres undefined) | active: 8100 nM |
| CCOC(=O)c1sc2nc3c(cc2c1N)COC(C)(C)C3 | inconclusive: 5.4 nM |
| CN1C(=O)C2(N=c3ccccc3=N2)c2ccccc21 | active: 120 nM |

In the list so far, 2 contain a CF3 group.

| Compound | max dye-equivalent concentration |
| --- | --- |
| O=C(NC1(C(F)(F)F)C(=O)Nc2c1c(=O)[nH]c(=O)n2Cc1ccco1)C1CC1 (centres undefined) | inactive |
| CNc1cc(-c2ccccc2C(F)(F)F)ncn1 | inactive |

(list continues)

| Compound | max dye-equivalent concentration |
| --- | --- |
| CCCCC(=O)Nc1cccc(NC(=O)CC)c1 | inactive |
| CCN(CC)S(=O)(=O)c1cccc(C(=O)N2CCCCC2)c1 | inconclusive: 2.2 nM |
| COc1ccc(CCn2c(C)cc(C(=O)CSc3nnc(N)s3)c2C)cc1 | inactive |
| Cc1ccc2c(c1)C(O)(c1c(C)[nH]c3ccccc13)C(=O)N2 (centres undefined) | inconclusive: 1.1 nM |
| O=c1c(-c2cccs2)nc2cnc(Nc3ccccc3)nc2n1C[C@H]1CCCO1 | inactive |
| Oc1ccc2ccccc2c1C=NC12CN3CCN(CN(C3)C1)C2 | inconclusive: 2.6 nM |
| Cc1cccc2cc(CN(CCN3CCOCC3)C(=O)NCc3ccccc3)c(=O)[nH]c12 | inactive |
| COC(=O)c1ccc(Cn2nnc3c(sc4nc(N5CCOCC5)c5c(c43)CCCC5)c2=O)o1 | inconclusive: 1.3 nM |
| CC(=O)N1CCC(=O)N(C(C)C)c2ccccc21 | inconclusive: 7 nM |
| CC(C)c1cc(C(=O)Nc2sc3c(c2C#N)CCC3)no1 | inconclusive: 4.5 nM |
| O=C(c1ccco1)N1CCC[C@@]2(CCN(c3ccccn3)C2)C1 | inactive |
| O=C(Nc1cccnc1)c1ccc2c(c1)OCO2 | inactive |
| O=C(c1ccc2nccnc2c1)N1CCN(Cc2ccc3c(c2)OCO3)CC1 | inconclusive: 4 nM |
| O=C(Cc1cn2ccsc2n1)Nc1nc2c(s1)CN(Cc1ccccc1)CC2 | active: 21 nM |
| CCOC(=O)N1CCC(NC(=O)c2cc3cc4cc(OC)ccc4nc3o2)CC1 | active: 380 nM |
| COc1ccc(N=C2SC(C(=O)O)CC(=O)N2Cc2ccc(OC)c(OC)c2)cc1 (centres undefined) | inconclusive: 2.5 nM |
| CCC(=O)Nc1cccc(-c2cn3ccsc3n2)c1 | inconclusive: 2.1 nM |
| CCC1CCCCN1C(=O)c1nn2cccnc2c1Cl (centres undefined) | inconclusive: 1.2 nM |
| CN(C)c1oc(-c2ccccc2)nc1C#N | active: 220 nM |
| O=C(Cn1c(=O)[nH]c2ccsc2c1=O)NC1CCCCC1 | inconclusive: 2.1 nM |
| O=C(Nc1ccccc1)c1ccc(S(=O)(=O)NCC2CCCO2)cc1 (centres undefined) | inconclusive: 2.8 nM |
| COc1ccc(OC)c(NC(=O)Cn2c(CCC(=O)O)ccc2-c2cccs2)c1 | inconclusive: 2 nM |
| N#CCCN(C(=O)Nc1ccc(Cl)cc1)c1ccccc1 | inconclusive: 8.1 nM |
| O=C(c1ccc(F)cc1)N1CCCCC(Sc2nnc3ccccn23)C1=O (centres undefined) | inactive |

| Compound | max dye-equivalent concentration |
| --- | --- |
| Cc1ccc2[nH]c(=O)c(CN(Cc3ccccc3)Cc3nnnn3C3CCCC3)cc2c1 | inconclusive: 5.1 nM |
| CCCC(c1cc(C(C)(C)C)c(O)cc1C)c1cc(C(C)(C)C)c(O)cc1C | inactive |
| CCS(=O)(=O)NCCc1cc2c(OC)ccc(OC)c2[nH]c1=O | inconclusive: 4.5 nM |
| COc1ccc(C[C@@](C)(N)C(=O)O)cc1OC | inconclusive: 1.1 nM |
| CC(C)COC(=O)n1c(=O)oc2cc(S(=O)(=O)N3CCCCC3)ccc21 | inconclusive: 1.3 nM |
| Cn1c(C(=O)N2CCc3ccccc32)cc2c(=O)n3ccccc3nc21 | active: 99 nM |
| Cc1cc(NC(=O)COC(=O)C(Nc2ccc(C(F)(F)F)cc2Cl)C(C)C)no1 (centres undefined) | inactive |
| N#CCCn1c(=O)c(-c2ccccc2)nc2cnc(Oc3ccccc3)nc21 | active: 34 nM |
| NC(=O)c1cc(-c2ccccc2)sc1NC(=O)Cc1ccc(S(=O)(=O)N2CCOCC2)s1 | inconclusive: 2.6 nM |
| Cc1nc2cnc(N(C)C)nc2n(CCC#N)c1=O | active: 13 nM |
| CCOC(=O)c1cnc(-n2nc(C)cc2C)nc1-n1nc(C)cc1C | inconclusive: 1.4 nM |
| CCOCCc1nnc(NC(=O)COC)s1 | inactive |
| CC1(C)CC(=O)C2=C(C1)Oc1ncn(CCCO)c(=N)c1C2c1ccccc1 (centres undefined) | inconclusive: 2.3 nM |
| Cc1cc(NC(=O)COC(=O)CSc2nc3cc(Cl)ccc3n2Cc2ccccc2)no1 | active: 57 nM |
| O=C(c1cc2nc(C3CC3)cc(C(F)F)n2n1)N1CCOCC1 | inconclusive: 2.9 nM |
| COc1ccc(-n2c(=O)cc(N3CCOCC3)[nH]c2=O)cc1 | inconclusive: 2.4 nM |
| O=C(C1CC(c2ccc(F)cc2)=NO1)N1CCCCC1 (centres undefined) | inconclusive: 3.8 nM |
| CN(CCC#N)C(=O)c1ccc(CNS(=O)(=O)c2ccc(F)cc2)cc1 | inconclusive: 1.6 nM |
| Cc1ccc(C2/C(=C(\O)c3c(C)nc4ccccn34)C(=O)C(=O)N2CCCN(C)C)o1 (centres undefined) | inconclusive: 1.2 nM |
| CCOc1ccc2[nH]c(=O)c(CN(CCO)C(=O)c3ccc(F)cc3)cc2c1 | active: 420 nM |
| CNS(=O)(=O)c1cccc(C(=O)OCc2cc(Cl)cc3c2OCOC3)c1 | inactive |
| CCn1nc(CC(=O)Nc2nnc(CC(=O)N3CCCC3)s2)c2ccccc2c1=O | inactive |
| CCCc1cc(=O)oc2cc(OCC(=O)N(C)C)c(Cl)cc12 | inconclusive: 7.2 nM |
| COc1ccc(OC)c(C2=NOC(C(=O)NCCN3CCOCC3)C2)c1 (centres undefined) | inconclusive: 1.4 nM |

Random excerpt: four records from the list

| Compound | max dye-equivalent concentration |
| --- | --- |
| CC(C)COC(=O)n1c(=O)oc2cc(S(=O)(=O)N3CCCCC3)ccc21 | inconclusive: 1.3 nM |
| NC(=O)c1cc(-c2ccccc2)sc1NC(=O)Cc1ccc(S(=O)(=O)N2CCOCC2)s1 | inconclusive: 2.6 nM |
| CC1(C)CC(=O)C2=C(C1)Oc1ncn(CCCO)c(=N)c1C2c1ccccc1 (centres undefined) | inconclusive: 2.3 nM |
| COc1ccc(OC)c(C2=NOC(C(=O)NCCN3CCOCC3)C2)c1 (centres undefined) | inconclusive: 1.4 nM |

(cont.)

| Compound | max dye-equivalent concentration |
| --- | --- |
| O=C(NCc1ccccn1)c1ccc(COc2ccc(Cl)cc2)o1 | inconclusive: 1.4 nM |
| CN1CCN(C(=O)c2cnn3c(C(F)(F)F)cc(-c4ccc5c(c4)OCO5)nc23)CC1 | inconclusive: 4.8 nM |
| COc1ccc(Cc2nnc(NC(=O)Cc3cccs3)s2)cc1 | inactive |
| Cc1sc2nc3n(c(=O)c2c1C)CCCS3 | inconclusive: 1.9 nM |
| O=C(Nc1ccc2nc(-c3cccs3)[nH]c2c1)c1cccs1 | inconclusive: 6.1 nM |
| CN1CCN(c2ncc3nc(-c4cc(F)cc(F)c4)c(=O)n(C4CC4)c3n2)CC1 | active: 53 nM |
| COc1ccc2c(c1OC)C(=O)N(c1cccc(C(F)(F)F)c1)C2 | inconclusive: 1.1 nM |
| CCc1ccc(NC(=O)Nc2cccs2)cc1 | inactive |
| CCOC(=O)C1CCN(c2cc(C)nc3cc(-c4cccc(F)c4)nn23)CC1 | active: 100 nM |
| O=C(NS(=O)(=O)c1ccccc1)c1ccccc1O | inconclusive: 5.2 nM |
| CC(=O)c1nc2ccccc2n1S(=O)(=O)c1ccc(C)cc1 | inconclusive: 5 nM |
| COC(=O)CSc1nc2cc3c(cc2cc1C#N)OCO3 | active: 210 nM |
| CN(Cc1ccccc1)Cc1nc2c(c(=O)n(C)c(=O)n2C)n1CCCc1ccccc1 | inactive |
| CCOC(=O)c1sc(NC(=O)CSc2n[nH]c(-c3ccccc3)n2)c(C#N)c1C | active: 17 nM |
| Cc1cc(=O)oc2cc(OC(C)C(=O)N3CCCc4ccccc43)ccc12 (centres undefined) | active: 46 nM |
| CCn1c(SCC(=O)Nc2nonc2C)nnc1-c1ccco1 | inconclusive: 1.3 nM |
| N#Cc1c(-c2cccs2)cc(-c2ccccn2)nc1N | inactive |
| COc1ccc(S(=O)(=O)N2CCOCC2)c(Cl)c1Cl | inactive |
| COC1(OC)N=C(N)C2(C#N)C(c3ccc4c(c3)OCO4)C12C#N (centres undefined) | inconclusive: 2.2 nM |
| COC(=O)C1CCN(C(=O)NC(C)(C)C)CC1 | inconclusive: 1.8 nM |
| Cc1cc2ccccc2n2c(SCC(=O)N3CCN(C(=O)c4ccco4)CC3)nnc12 | inactive |
| Cc1nc2ccccc2nc1OCC(=O)Nc1cc(C(F)(F)F)ccc1N1CCOCC1 | inconclusive: 5.9 nM |
